Amino acid sequences for entries named in this document (tags omitted). A change or cut given only in a name is not applied to a line headed by its entry.
UniProt O82277: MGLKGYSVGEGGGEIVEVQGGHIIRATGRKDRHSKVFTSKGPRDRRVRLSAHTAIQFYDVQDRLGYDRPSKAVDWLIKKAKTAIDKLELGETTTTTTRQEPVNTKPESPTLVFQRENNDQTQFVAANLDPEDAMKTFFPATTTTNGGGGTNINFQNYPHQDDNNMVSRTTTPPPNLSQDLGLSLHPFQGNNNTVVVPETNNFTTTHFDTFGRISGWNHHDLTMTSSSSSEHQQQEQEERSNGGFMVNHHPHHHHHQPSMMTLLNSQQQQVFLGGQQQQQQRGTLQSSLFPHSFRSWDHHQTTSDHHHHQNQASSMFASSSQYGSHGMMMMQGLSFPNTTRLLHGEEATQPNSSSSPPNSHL

According to PMC12107181 (2025):

Target: T1, BD-COP1 (Arabidopsis) (UniProt P43254)
T1 sequence: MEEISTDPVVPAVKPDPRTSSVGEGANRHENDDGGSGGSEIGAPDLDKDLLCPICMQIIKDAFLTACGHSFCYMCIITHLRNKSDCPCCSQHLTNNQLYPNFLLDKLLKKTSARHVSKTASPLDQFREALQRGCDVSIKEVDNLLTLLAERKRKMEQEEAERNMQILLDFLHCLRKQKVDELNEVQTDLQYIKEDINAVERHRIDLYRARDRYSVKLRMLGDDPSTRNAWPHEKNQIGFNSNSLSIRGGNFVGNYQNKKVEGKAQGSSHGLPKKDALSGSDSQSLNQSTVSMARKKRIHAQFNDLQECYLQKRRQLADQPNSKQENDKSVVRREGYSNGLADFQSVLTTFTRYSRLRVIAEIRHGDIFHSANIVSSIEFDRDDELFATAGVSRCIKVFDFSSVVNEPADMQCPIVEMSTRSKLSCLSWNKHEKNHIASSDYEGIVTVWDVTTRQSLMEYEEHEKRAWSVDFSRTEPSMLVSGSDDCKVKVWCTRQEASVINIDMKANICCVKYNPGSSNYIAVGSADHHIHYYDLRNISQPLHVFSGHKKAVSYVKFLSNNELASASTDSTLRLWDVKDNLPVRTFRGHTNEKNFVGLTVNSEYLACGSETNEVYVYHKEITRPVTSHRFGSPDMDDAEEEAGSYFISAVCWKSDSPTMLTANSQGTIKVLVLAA
Assay: two-hybrid; Y2H, quantified read-out with SD of three independent biological replicates (Fig. 2B, E, F); BD-COP1 or its mutants with AD fusions

binding: binds
Substance: AD-TCP10VPAA (from UniProt O82277)

These are yes or no findings as the source states them, for the method shown. Binding calls can cover weak binding; strength is not graded here. Where a sequence is shown, tags or fusion partners need not be part of it.
